Results reported in article doi:10.1101/2025.09.18.677151.
No constants are given. Whether binding was seen depends on the method and setting. In cells and extracts the contact can be indirect. Some results given as binding are weak or reduced against the parent protein; the word gives no strength. Sequences can lack the tags named with a protein.

T1: E. coli TatC, chromosomally encoded, with a Twin-Strep tag (E. coli) (UniProt P69423)
T1 sequence: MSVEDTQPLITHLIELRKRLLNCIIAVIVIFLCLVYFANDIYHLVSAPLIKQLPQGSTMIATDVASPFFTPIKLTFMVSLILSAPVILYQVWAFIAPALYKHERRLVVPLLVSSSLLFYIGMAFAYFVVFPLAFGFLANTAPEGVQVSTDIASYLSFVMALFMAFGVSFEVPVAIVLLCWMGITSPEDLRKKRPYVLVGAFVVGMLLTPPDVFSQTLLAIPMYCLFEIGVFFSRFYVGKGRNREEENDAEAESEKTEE

T2: E. coli TatC with a C-terminal strep tag, expressed from the tatABC plasmid (E. coli) (UniProt P69423)
T2 sequence: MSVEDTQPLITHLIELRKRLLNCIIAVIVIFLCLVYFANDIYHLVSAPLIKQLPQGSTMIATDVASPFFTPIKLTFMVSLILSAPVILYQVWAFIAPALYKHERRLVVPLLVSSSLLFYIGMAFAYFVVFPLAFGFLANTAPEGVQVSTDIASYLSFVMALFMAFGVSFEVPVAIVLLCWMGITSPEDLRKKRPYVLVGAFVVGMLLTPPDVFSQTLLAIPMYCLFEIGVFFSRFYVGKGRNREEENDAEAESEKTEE

B1: E. coli TatA, natively expressed (protein, UniProt P69428 1-89)
chain: MGGISIWQLLIIAVIVVLLFGTKKLGSIGSDLGASIKGFKKAMSDDEPKQDKTSQDADFTAKTIADKQADTNQEQAKTEDAKRHDKEQV
B2: E. coli TatB, natively expressed (protein, UniProt P69425 1-171)
chain: MFDIGFSELLLVFIIGLVVLGPQRLPVAVKTVAGWIRALRSLATTVQNELTQELKLQEFQDSLKKVEKASLTNLTPELKASMDELRQAAESMKRSYVANDPEKASDEAHTIHNPVVKDNEAAHEGVTPAAAQTQASSPEQKPETTPEPVVKPAADAEPKTAAPSPSSSDKP
B3: E. coli TatA with an internal His tag (protein, UniProt P69428 1-89)
chain: MGGISIWQLLIIAVIVVLLFGTKKLGSIGSDLGASIKGFKKAMSDDEPKQDKTSQDADFTAKTIADKQADTNQEQAKTEDAKRHDKEQV

What was measured:
[1] = target: T1, E. coli TatC, chromosomally encoded, with a Twin-Strep tag (E. coli); experiment: pull-down
[2] = target: T2, E. coli TatC with a C-terminal strep tag, expressed from the tatABC plasmid (E. coli); experiment: pull-down

Binder	binding [1]	binding [2]
B1	binds	
B2	binds	
B3		binds
